The values are deposited in ChEMBL (CHEMBL3988442, “University of Dundee, Small-Polar-MMV Screening Library” (2021)).

Sequences of proteins named here, by UniProt entry; tags and fusion partners are left off. Residues count along the entry.
UniProt Q4DA54, 1-478: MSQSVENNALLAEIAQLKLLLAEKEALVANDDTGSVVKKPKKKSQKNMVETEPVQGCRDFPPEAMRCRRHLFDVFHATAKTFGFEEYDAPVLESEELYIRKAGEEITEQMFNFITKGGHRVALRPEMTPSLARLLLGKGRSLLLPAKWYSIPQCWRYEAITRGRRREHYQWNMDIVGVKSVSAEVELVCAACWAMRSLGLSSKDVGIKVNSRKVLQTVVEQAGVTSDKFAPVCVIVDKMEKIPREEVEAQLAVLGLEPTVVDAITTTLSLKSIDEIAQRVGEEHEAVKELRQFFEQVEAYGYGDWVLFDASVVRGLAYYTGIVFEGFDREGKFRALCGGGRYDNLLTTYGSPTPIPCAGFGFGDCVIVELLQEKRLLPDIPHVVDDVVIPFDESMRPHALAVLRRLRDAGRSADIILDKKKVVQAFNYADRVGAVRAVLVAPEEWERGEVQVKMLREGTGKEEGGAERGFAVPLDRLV

Results are given as percent effect. How 0% and 100% were set is not recorded. Most values in the screen are low, and negative values occur. This is an unselected part of the compounds tested.

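Enzyme assay of histidyl-tRNA synthetase; the read-out is not stated. Target: Histidine-tRNA ligase, Trypanosoma cruzi CL Brener (UniProt Q4DA54). Tested at 30 µM. Higher reads as stronger inhibition (inferred: compounds with an IC50 in retests scored well above the rest). Of about 69,000 compounds tested this way, about 31 (0.045%) reached 50% or more in at least one test.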

structure | Percent Effect
Cc1noc(C(C)C)c1C(=O)N1CCCN(Cc2cscn2)CC1 | 1.132
O=C(c1ccc[nH]1)N1CCOC2(COCCN(c3cncnc3)C2)C1 (centres undefined) | 0
CN(C)c1ccc(CN(CCCn2ccnc2)Cc2c[nH]cn2)cc1 | 4.865
COc1ncccc1NC(=O)N1CCCC1c1cc(C)no1 (centres undefined) | 9.195
CC(C)N(Cc1ccccn1)C(=O)CN(C)C(=O)c1cccs1 | 7.463
COCCN1CCc2cc(C(=O)NC(C)C)c(NCC(C)C)nc2CC1 | 4.348
O=C(c1cccc2cn[nH]c12)N1CCCC1c1noc(C2CC2)n1 (centres undefined) | 3.458
COc1ccc(N2CCOCC3(CCCN(c4cnccn4)C3)C2)cc1 (centres undefined) | 8.046
Cc1cc(C(=O)N2CCc3nc4sc(C)cc4c(=O)n3CC2)on1 | 3.745
CCN1CC2(CCC1=O)CCN(Cc1nncn1C(C)C)CC2 | 1.316
Cc1csc(-c2cccc(NC(=O)N3CCOCC3)c2)n1 | 3.061
Cc1ccc(NC(=O)c2ccc(=O)n(CC(=O)NC3CCCC3)n2)cc1 | 2
O=C(CN1CC(n2cccn2)C1)NCCC1=CCCCC1 | 4.651
Cc1nc(CN2CCCC(CCc3c(F)cccc3F)C2)c[nH]1 (centres undefined) | 6.612
O=C(Cc1cccs1)NCCNc1nccc(C(F)(F)F)n1 | 7.955
CCn1ccnc1C1CCCN(C(=O)c2sc(C)nc2C)C1 (centres undefined) | 0.5025
CN(Cc1nnc2ccccn12)C(=O)CCNC(=O)C(C)(C)C | -1.911
Cc1cnn(CC2CN(Cc3nc4ccccc4o3)CCO2)c1 (centres undefined) | 2.041
CC(=O)NCc1ccc(C(=O)N2CCCCC2Cn2cccn2)o1 (centres undefined) | -1.149
O=C(c1ccncn1)N1C[C@H]2CCC[C@@]2(COCC2CCOCC2)C1 | 10.92
CCc1cnc(CN(C)C2CCN(CCc3cccs3)C2)o1 (centres undefined) | -3.788
O=C(CCc1nc(Cl)n[nH]1)N1C[C@@H](CN2CCCCC2)[C@@H](CO)C1 | 4.813
O=C(C[S+]([O-])Cc1c(F)cccc1Cl)N1CCc2sccc2C1 (centres undefined) | 7.937
Cc1c(C(=O)NCC(C)C)nnn1-c1cccc2c1CCN(CCO)C2 | 3.333
Cc1ccccc1OC1CCN(CC(=O)Nc2ccn(C)n2)CC1 | 6.571
CCNC(=O)CN(CC)C(=O)Cc1csc(C(C)C)n1 | 6.077
Cc1ccc(N(C)S(=O)(=O)c2cc(C(=O)O)cs2)cc1 | 6.017
c1ccc(-c2cc(CN3C[C@H]4CC[C@H]3C4)on2)cc1 | 7.955
COCC1c2c(cnn2CC2CC2)CCN1Cc1ccsc1 (centres undefined) | 3.81
O=C1C(Nc2nccn3cnnc23)CCCN1c1ccccc1Cl (centres undefined) | 5.288
COC(=O)CCN(C)Cc1cc(Br)cs1 | 5.288
CC(C)CS(=O)(=O)N1C[C@H]2C[C@H](C(=O)N3CCCC3)[C@@H](C1)O2 | 8.889
O=C(NS(=O)(=O)c1ccccc1Cl)c1cccc2c1OCCO2 | -4.132
CCCc1nc(CNC(=O)Cc2cc(C)no2)cs1 | 9.877
CCn1c(Cn2cccn2)nnc1C1CCN(Cc2ccc(C)o2)CC1 | 4.95
CC(OCC1CC1)C(=O)N1CCCN(Cc2cnn(C)c2)CC1 (centres undefined) | -1.128
Cc1ccc(C)c2c(O)cc(CNCC(=O)N3CCCC3)nc12 | 10.59
Cc1cc(C)n2c(CCCNS(=O)(=O)c3ccc(F)cc3)nnc2n1 | 5
O=C(COC1CCCC1)N1CCCC1c1noc(C2CC2)n1 (centres undefined) | -1.149
Cc1cnn(CC2CCCN2C(=O)CCc2c(C)noc2Cl)c1 (centres undefined) | 5.435
O=C(c1ccccn1)N1CC[C@@H](N2CCOCC2)[C@@H]1Cc1ccccc1 | 5.785
Cc1ccc(NC2CCN(C(=O)c3n[nH]c4ccccc34)CC2)nn1 | 4.151
c1cncc(CN2CCCC(c3nnc(-c4cnccn4)o3)C2)c1 (centres undefined) | 2.247
O=C(N1CCOCC1)[C@@]12CCO[C@@H]1CCN(Cc1ccncc1)C2 | 5.556
Cn1c(CCC(=O)N2CCCC3(CC2)CNC(=O)O3)nc2cccnc21 (centres undefined) | -4.721
O=C(CCc1ccncc1)Nc1ccc(OCC2CC2)cc1 | 5.195
COc1ccc(NC(=O)Cc2c(C)nn(C)c2C)cc1F | -1.657
O=C(O)COc1ccc(Cl)cc1CN1CCC2(CCOCC2)CC1 | 1.911
CCCS(=O)(=O)N1CCC2(CCC(=O)N(Cc3ccccc3)C2)CC1 | 7.229
Cc1cc(NCCC(=O)NC2CCCCC2)nc(-c2ccncc2)n1 | -3.509
COCCCS(=O)(=O)N(Cc1cccc(C)c1)Cc1ccccn1 | 12.31
COCC1CN(S(=O)(=O)N(C)C)Cc2ncn(CC3CC3)c21 (centres undefined) | 4.673
CCc1ccc(OCC(O)CN2CCN(CC)CC2)cc1 (centres undefined) | 3.79
CCOc1ccc(CN2CCCC(c3nn(C)c(=O)n3CC)C2)cn1 (centres undefined) | 1.163
Cc1c(C)n(CC(O)CN2CCC(O)CC2)c2c(Cl)cccc12 (centres undefined) | 4.39
CC(C)Nc1ccc2c(c1)C1(CCOCC1)C(=O)N2c1ccsc1 | 10.16
CCc1nc(Cn2c(=O)n(CC)c3ccccc32)no1 | 8.671
O=C(NCC1CC[C@@]2(CNCCOC2)O1)c1cccnc1 (some centres undefined) | 3.226
CCN(CC)CC(=O)NCCc1csc(N2CCCC2)n1 | 4.564
CC(C)[C@@H]1CN(C(=O)C2(c3ccccc3)CC2)C[C@H]1C(=O)O | 4.762
CNS(=O)(=O)c1cccc(CNc2cc(C(F)(F)F)ccn2)c1 | 3.008
O=C1NCCO[C@H]2CN(C(=O)Cc3csc4ccccc34)CC[C@@H]12 | -8.247
COC1(CNC(=O)c2ccc3nsnc3c2)CCSC1 (centres undefined) | 6.25

Some entries from above, unchanged:

* COCC1c2c(cnn2CC2CC2)CCN1Cc1ccsc1 (centres undefined) | 3.81%
* Cc1ccc(NC2CCN(C(=O)c3n[nH]c4ccccc34)CC2)nn1 | 4.151%
* CCCS(=O)(=O)N1CCC2(CCC(=O)N(Cc3ccccc3)C2)CC1 | 7.229%
* CCc1ccc(OCC(O)CN2CCN(CC)CC2)cc1 (centres undefined) | 3.79%
* Cn1c(CCC(=O)N2CCCC3(CC2)CNC(=O)O3)nc2cccnc21 (centres undefined) | -4.721%
* Cc1csc(-c2cccc(NC(=O)N3CCOCC3)c2)n1 | 3.061%